# Results of single-concentration screens

Chains of the proteins cited; added tags and fusions are not shown. Residues count along the entry.
UniProt Q4DA54, 1-478: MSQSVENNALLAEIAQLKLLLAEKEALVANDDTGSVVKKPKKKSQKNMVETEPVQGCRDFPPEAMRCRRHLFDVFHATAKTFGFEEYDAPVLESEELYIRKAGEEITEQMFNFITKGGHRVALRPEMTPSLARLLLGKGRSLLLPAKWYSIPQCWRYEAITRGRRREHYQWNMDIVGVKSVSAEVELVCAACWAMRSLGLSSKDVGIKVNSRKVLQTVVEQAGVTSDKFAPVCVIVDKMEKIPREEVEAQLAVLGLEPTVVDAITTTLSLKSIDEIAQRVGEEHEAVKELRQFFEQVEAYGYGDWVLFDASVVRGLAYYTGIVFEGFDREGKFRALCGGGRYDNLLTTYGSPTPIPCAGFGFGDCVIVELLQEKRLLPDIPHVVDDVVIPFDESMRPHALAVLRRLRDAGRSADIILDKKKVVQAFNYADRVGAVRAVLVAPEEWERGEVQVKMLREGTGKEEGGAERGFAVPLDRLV

Results are given as percent effect.
The record does not define 0% and 100%; most values in the screen are far below 50% and negative numbers occur (in some assays of this library far below -100).
The compounds are a random part of those screened.

Toxoplasma: 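Assay of Toxoplasma gondii numbers, read through their beta-galactosidase reporter with a colour substrate. Tested at 10 µM. The record gives no direction; the compounds picked for IC50 retests had high values, so higher reads as fewer parasites. About 67,000 compounds were tested under these conditions; 0.38% (about 260) showed 50% or more at least once.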
TcHisRS: 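Enzyme assay of histidyl-tRNA synthetase; the read-out is not stated. Target: Histidine-tRNA ligase, Trypanosoma cruzi CL Brener (UniProt Q4DA54). Compounds at 30 µM. Direction is inferred from retests: higher values go with stronger inhibition. Size under these conditions: about 69,000 compounds, about 31 of them at 50% or above in at least one test.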

{"compound": "Cc1ccc(-c2nnc(SCC(=O)O)n2-c2ccc(C)cc2)cc1", "Toxoplasma": 1.941, "TcHisRS": 1.639}
{"compound": "Cc1nccn1-c1cc(CNC(=O)CCC2CCCO2)ccn1", "stereo": "centres undefined", "Toxoplasma": -7.847, "TcHisRS": -3.03}
{"compound": "CSC(C)(C)CNC(=O)NCC[S+]([O-])c1ccccc1", "stereo": "centres undefined", "Toxoplasma": 1.438, "TcHisRS": 0}
{"compound": "Cc1cc2c(c(-c3cnccn3)c1)OC(CN)C2", "stereo": "centres undefined", "Toxoplasma": 12.36, "TcHisRS": 10.27}
{"compound": "CC(=O)N1CCCc2sc(C(=O)NC3CC3)nc21", "Toxoplasma": -6.31, "TcHisRS": 2.186}
{"compound": "N#Cc1cn(C2CC2)c(=O)n(Cc2noc(-c3cccs3)n2)c1=O", "Toxoplasma": -6.798, "TcHisRS": 0}
{"compound": "Cc1ccc(CC2CCCN2CC(=O)NCc2cccnc2)cc1", "stereo": "centres undefined", "Toxoplasma": -0.2514, "TcHisRS": 4.348}
{"compound": "CO[C@@H]1CCN(c2ncc(F)cn2)[C@@H]2CN(CC3CC3)C[C@@H]21", "TcHisRS": 5.376}
{"compound": "Cc1ccc([C@@H]2CN(S(=O)(=O)c3ccccc3)C[C@H]2N(C)C)cc1", "Toxoplasma": 3.304, "TcHisRS": 1.163}
{"compound": "CCN(C(=O)NCCc1cccc(F)c1F)C(C)CS(C)(=O)=O", "stereo": "centres undefined", "Toxoplasma": -4.909, "TcHisRS": 2.632}
{"compound": "CCN(CC(=O)NC(C)C)S(=O)(=O)N1CCCC(C)C1", "stereo": "centres undefined", "Toxoplasma": -6.455, "TcHisRS": 0}
{"compound": "Cc1c(C)n(CC(O)CN2CCN(CCO)CC2)c2c(Cl)cccc12.Cl", "stereo": "centres undefined", "Toxoplasma": 1.644}
{"compound": "COC(=O)CCCn1ccnc1C(C)c1ccccc1", "stereo": "centres undefined", "Toxoplasma": -0.8521, "TcHisRS": 5.464}
{"compound": "O=C(NCc1ccccc1)N1Cc2nc(COCC3CC3)oc2C1", "Toxoplasma": -2.989, "TcHisRS": -6.897}
{"compound": "COc1ccc(-c2nc(CN3CCCS3(=O)=O)co2)cc1", "Toxoplasma": 8.192, "TcHisRS": 0}
{"compound": "Cc1ccc(-c2ncc(CNc3cnccc3CO)s2)cc1", "Toxoplasma": -48.94, "TcHisRS": 2.439}
{"compound": "O=C(c1ccoc1)N1CCCC2(CCC(=O)N2Cc2ccncc2)C1", "stereo": "centres undefined", "TcHisRS": 7.527}
{"compound": "CC(C)(NS(C)(=O)=O)c1nc(-c2ccc(F)c(F)c2)no1", "Toxoplasma": -26.75, "TcHisRS": 4.95}
{"compound": "Cc1n[nH]c(C)c1C1COCCN1C(=O)c1cc(Cl)c[nH]1", "stereo": "centres undefined", "Toxoplasma": 3.083, "TcHisRS": 2.29}
{"compound": "O=C(O)C(F)(F)F.O=C(O)C(F)(F)F.[H][C@@]12CCCO[C@]1([H])[C@H](N(C)Cc1ccco1)CN2Cc1cnn(C)c1", "Toxoplasma": 14.82}
{"compound": "Cc1ncsc1-c1nnc(C2CCN(Cc3cccc(Cl)c3)CC2)o1", "Toxoplasma": 3.246, "TcHisRS": 14.29}
{"compound": "Cc1cc(C2CCCN(C(=O)c3cccnc3)C2)ccn1", "stereo": "centres undefined", "Toxoplasma": 0.6567, "TcHisRS": 11.7}
{"compound": "O=C(O)C(F)(F)F.[H][C@@]12CN(Cc3ccoc3)CCO[C@]1([H])CN(S(=O)(=O)N(C)C)C2", "Toxoplasma": 5.643}

2 of the entries, repeated:

- Cc1c(C)n(CC(O)CN2CCN(CCO)CC2)c2c(Cl)cccc12.Cl (centres undefined) : Toxoplasma: 1.644%
- Cc1ccc(-c2ncc(CNc3cnccc3CO)s2)cc1 : Toxoplasma: -48.94%; TcHisRS: 2.439%

The values are deposited in ChEMBL (CHEMBL3988442, “University of Dundee, Small-Polar-MMV Screening Library” (2021)).